Measured values as given in US5208245A, “Dihydropyridine derivative” (Wakunaga Seiyaku Kabushiki Kaisha, priority 1990, dated 1993).

Test: Acute toxicity test, intravenous, mice
Conditions: mouse, in vivo, male ddY mice, observed two weeks
Experimental: Male ddY mice (5-7 weeks old) were divided into groups each consisting of 4 mice. The test compounds were dissolved in physiological saline containing 50% polyethylene glycol 400, which was then administered intravenously to the mice, and they were put under observation over two weeks. The analysis was done following the Van der Worden method.

SMILES: COC(=O)C1=C(C)NC(C)=C(C(=O)OC)C1c1ccccc1[N+](=O)[O-] [Nifedipine, reference compound]
- LD50 at 336 h: 5.3 mg/kg
